Source: PubChem BioAssay AID743454 (Peter MacCallum Cancer Centre, 2014)

Screen: 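Genes whose loss kills vorinostat-resistant colon cancer cells under vorinostat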 (primary screen)
System: human HCT116-VR colon cancer cells, selected for vorinostat resistance
Knock-down reagent: siRNA pool against human genes, 40 nM siRNA pool
Time to read-out: vorinostat for 24 h, read-out about 72 h after transfection
Treatment: vorinostat at 2.5 µM final
Measurement: 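Two measures, CellTiter-Fluor viability and luminescent caspase 3/7 activity, each as fold change against same-plate mock wells, mean of duplicates, then screen-wide robust z-score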
Reading the numbers: viability robust z-score: higher = more viable cells than screen typical; caspase robust z-score: higher = more caspase 3/7 activity than screen typical
Call rule: 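Hits are knock-downs in viability class RV1/RV2 or caspase class CA1/CA2, excluding ones that killed cells in the no-drug cell-count arm; hits then retested with single siRNAs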
In all, the deposit lists about 18,000 reagents; this is a part drawn at random. 450 of them (2.5%) count as active. 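Single biological run; no consistent viability z cut-off exists, so the class columns, not z-scores, define the calls.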 Entries without a mark were called inactive.

What is on record for PREP?
viability hit class: no change; caspase hit class: no change; viability robust z-score: -0.77; caspase robust z-score: -1.19

What did the screen give for B3GAT1?
viability hit class: no change; caspase hit class: no change; viability robust z-score: -2.2; caspase robust z-score: 2.39

What is on record for PTP4A1?
viability hit class: no change; caspase hit class: no change; viability robust z-score: 1.01; caspase robust z-score: 0.34

For HOXA6, how do the results read?
viability hit class: no change; caspase hit class: no change; viability robust z-score: 0.96; caspase robust z-score: 0.96

With CLDN23, how do the results read?
viability hit class: no change; caspase hit class: no change; viability robust z-score: -0.03; caspase robust z-score: 1.6

For TCAF2, how do the results read?
viability hit class: no change; caspase hit class: no change; viability robust z-score: -0.23; caspase robust z-score: 2.46

What is on record for CHAD?
viability hit class: no change; caspase hit class: no change; viability robust z-score: -0.06; caspase robust z-score: -0.28

For CEP20, what does the deposit list?
viability hit class: no change; caspase hit class: no change; viability robust z-score: -1.02; caspase robust z-score: 0.16

With BGN, what does the deposit list?
viability hit class: no change; caspase hit class: no change; viability robust z-score: -0.36; caspase robust z-score: 1.97

Which result is listed for CYCS?
viability hit class: no change; caspase hit class: no change; viability robust z-score: -1.06; caspase robust z-score: -0.11

For ZHX1, what was measured?
viability hit class: no change; caspase hit class: no change; viability robust z-score: 0.05; caspase robust z-score: -0.78

With CST6, what does the deposit list?
viability hit class: no change; caspase hit class: no change; viability robust z-score: 0.84; caspase robust z-score: -0.36

How did the screen score SLC49A4?
viability hit class: no change; caspase hit class: no change; viability robust z-score: 1.29; caspase robust z-score: -0.6

Which result is listed for NMUR2?
viability hit class: no change; caspase hit class: no change; viability robust z-score: -0.46; caspase robust z-score: 0.86

For GABARAPL1, what does the deposit list?
viability hit class: no change; caspase hit class: no change; viability robust z-score: -1.15; caspase robust z-score: 0.58

What did the screen give for XAF1?
viability hit class: no change; caspase hit class: no change; viability robust z-score: 0.8; caspase robust z-score: -0.91

Copied from the list:
Under “caspase hit class”, CST6 is entered as no change
Under “viability robust z-score”, CEP20 reads -1.02
For “viability robust z-score”, TCAF2 is entered as -0.23

Additional results follow.
Which result is listed for SUN1?
viability hit class: no change; caspase hit class: no change; viability robust z-score: -0.59; caspase robust z-score: -1.38

Which result is listed for TRAPPC6B?
viability hit class: no change; caspase hit class: no change; viability robust z-score: 0.29; caspase robust z-score: -0.23

What is on record for ECHDC3?
viability hit class: no change; caspase hit class: no change; viability robust z-score: 0.29; caspase robust z-score: -0.88

With OR2A25, what does the deposit list?
viability hit class: no change; caspase hit class: no change; viability robust z-score: -0.19; caspase robust z-score: -0.78

How did the screen score CT45A5?
viability hit class: no change; caspase hit class: no change; viability robust z-score: 0.44; caspase robust z-score: -0.62

What is on record for DDX42?
viability hit class: no change; caspase hit class: no change; viability robust z-score: -4.11; caspase robust z-score: 1.34

How did the screen score CKB?
viability hit class: no change; caspase hit class: no change; viability robust z-score: -0.08; caspase robust z-score: -0.42

What is on record for ZP4?
viability hit class: no change; caspase hit class: no change; viability robust z-score: 0.02; caspase robust z-score: -0.2

With NEIL1, what does the deposit list?
viability hit class: no change; caspase hit class: no change; viability robust z-score: -0.98; caspase robust z-score: -1.05

With ANXA1, what was measured?
viability hit class: no change; caspase hit class: no change; viability robust z-score: 0.62; caspase robust z-score: -0.3

With OR13H1, what does the deposit list?
viability hit class: no change; caspase hit class: no change; viability robust z-score: -0.24; caspase robust z-score: 0.49
